# From the supplement of paper PMC9135407
# Values joined by “and” are separate entries in the source; they are usually repeats but may differ in a detail not shown here. Equal values may be shown once. Where a name gives a salt, the structure may show the parent alone. ± gives the standard deviation of the averaged measurements. The list shows a part of the results. Part of the spread comes from offsets between plates or batches.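 Culture-activated primary human stellate myofibroblasts, where regained lipid droplets signal inactivation. Value: share of Hoechst-counted cells above a per-plate Bodipy cutoff, in duplicate wells, with DMSO negative and nortriptyline positive controls on each plate. Hits: a control-normalized score above the plate's top-tenth-percentile nortriptyline wells, or one of a plate's three best wells. Final well concentrations are not given.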
# Tested on: primary human hepatic stellate cells (donor 1)
# Assay: percent Bodipy-positive cells; higher = more lipid droplet accumulation
# Settings: 48 h
# [1] = library stock concentration: 10 mM
# [2] = library stock concentration: 80 uM
# [3] = library stock concentration: 400 uM
# [4] = library stock concentration: 2 mM
# [5] = library stock concentration: 3.33 mM
compound,measurement,setting,value
CCCCN1CCCC1CNC(=O)c1cc(C#N)c2ccccc2c1OC (centres undefined) [Nafadotride],percent Bodipy-positive cells,[1],49.6% and 24.6%
c1ccc2c3c([nH]c2c1)C1C2CCC(C4CCCNC42)N1CC3 (centres undefined) [Nitrarine dihydrochloride],percent Bodipy-positive cells,,36.7 ± 3.1%
CN(Cc1ccccc1)C(=O)[C@H](Cc1ccc2ccccc2c1)NC(=O)[C@@H]1CCCN1C(=O)Nc1ccccc1[N+](=O)[O-],percent Bodipy-positive cells,[1],7.1 ± 0.2%
CC(=O)Nc1nc(C)c(-c2ccc(Cl)c(S(=O)(=O)NCCO)c2)s1,percent Bodipy-positive cells,[2],8.61 ± 1.9%
same,percent Bodipy-positive cells,[3],6.93 ± 0.8%
same,percent Bodipy-positive cells,[4],8.16 ± 0.59%
same,percent Bodipy-positive cells,[5],8.27 ± 0.44%
same,percent Bodipy-positive cells,[1],19.2% and 11.2%
CN1CC[C@]23c4ccccc4N[C@H]1[C@]21CCN(C)[C@H]3Nc2ccccc21 [Calycanthine],percent Bodipy-positive cells,,45 ± 6.8%
COc1ccccc1OCCNCC(O)COc1cccc2[nH]c3ccccc3c12 (centres undefined) [Carvedilol],percent Bodipy-positive cells,[1],97.6 ± 2.4%
Br.NC(=O)C(c1ccccc1)(c1ccccc1)[C@@H]1CCN(CCc2ccc3c(c2)CCO3)C1,percent Bodipy-positive cells,[1],90.6 ± 0.33%
OC[C@H]1O[C@@H](Oc2cc(O)cc(/C=C/c3ccc(O)cc3)c2)[C@H](O)[C@@H](O)[C@@H]1O,percent Bodipy-positive cells,[1],9.55 ± 1.7%
Cc1c[nH]c(-c2cnc(NCCNc3ccc(C#N)cn3)nc2-c2ccc(Cl)cc2Cl)n1.Cl,percent Bodipy-positive cells,[1],77 ± 2.2%
COc1ccc(C2CNC(=O)C2)cc1OC1CCCC1 (centres undefined),percent Bodipy-positive cells,[1],10.3 ± 0.15%
COc1ccc(C2CNC(=O)C2)cc1OC1CCCC1 (stereo not drawn) [S- (+)-Rolipram],percent Bodipy-positive cells,[5],4.83 ± 3%
same,percent Bodipy-positive cells,[1],13.5 ± 1.9%
COc1ccc(C2CNC(=O)C2)cc1OC1CCCC1 (centres undefined) [Rolipram],percent Bodipy-positive cells,,9.97 ± 6.6%
same,percent Bodipy-positive cells,[5],8.29 ± 8.6%
same,percent Bodipy-positive cells,library stock concentration: 7.3 mM,12.3 ± 3.9%
same,percent Bodipy-positive cells,[1],9.8% and 14.2% and 7.41%
same,percent Bodipy-positive cells,library stock concentration: 18.2 mM,11.4 ± 3.7%
CC[N+]1(C)C2CCC1CC(OC(=O)C1CCC(C(=O)OC3CC4CCC(C3)[N+]4(C)CC)(c3ccccc3)c3ccccc31)C2 (stereo not drawn) [beta- Belladonnine dichloroethylate],percent Bodipy-positive cells,,8.55 ± 2.8%
O=c1c(O)c(-c2ccc(O)cc2O)oc2cc(O)cc(O)c12 [Morin Hydrate],percent Bodipy-positive cells,[5],5.92 ± 0.3%
same,percent Bodipy-positive cells,[1],14 ± 2.2%
O=c1c(O)c(-c2ccc(O)cc2O)oc2cc(O)cc(O)c12 [Morin],percent Bodipy-positive cells,[1],26.5% and 20.9%
Nc1c(S(=O)(=O)O)cc(Nc2cccc3ccccc23)c2c1C(=O)c1ccccc1C2=O,percent Bodipy-positive cells,[1],2.38 ± 1.5%
CCOC(=O)Oc1c(OC)cc(C(=O)O[C@@H]2C[C@@H]3CN4CCc5c([nH]c6cc(OC)ccc56)[C@H]4C[C@@H]3[C@H](C(=O)OC)[C@H]2OC)cc1OC [Syrosingopine],percent Bodipy-positive cells,,60.3 ± 24%
COc1ccc(F)c(F)c1C(=O)c1cnc(NC2CCN(S(C)(=O)=O)CC2)nc1N,percent Bodipy-positive cells,[5],44.2 ± 16%
same,percent Bodipy-positive cells,[1],48.3 ± 2.4%
CCCCC(F)(F)[C@@]1(O)CC[C@H]2[C@@H](CC(=O)[C@@H]2CCCCCCC(=O)O)O1 [Lubiprostone],percent Bodipy-positive cells,[5],9.25 ± 2.7%
same,percent Bodipy-positive cells,[1],15.9 ± 8.2%
Oc1ccc([C@@H]2CNCc3sccc32)cc1O,percent Bodipy-positive cells,[1],21.3 ± 4.1%
O=C1OCCN1/N=C/c1ccc([N+](=O)[O-])o1 [Furazolidone],percent Bodipy-positive cells,,8.18 ± 3.1%
same,percent Bodipy-positive cells,library stock concentration: 8.9 mM,3.079 ± 0.021%
same,percent Bodipy-positive cells,[1],8.35 ± 0.74%
NC(=O)c1ccc([N+](=O)[O-])cc1Cl [Aklomide],percent Bodipy-positive cells,[1],26.8 ± 7.7%
CC(C)[C@H](N)C(=O)OCC(CO)OCn1cnc2c(=O)nc(N)[nH]c21 (some centres undefined),percent Bodipy-positive cells,[1],45.2 ± 4.2%
CCOC(=O)[C@H](CCc1ccccc1)N[C@H]1CS[C@H](c2cccs2)CN(CC(=O)O)C1=O [Temocapril HCl],percent Bodipy-positive cells,[5],19.2 ± 17%
same,percent Bodipy-positive cells,[1],16.3 ± 1.2%
O=C1NC(=O)/C(=C/c2ccc3nccnc3c2)S1,percent Bodipy-positive cells,[2],12.9 ± 0.74%
same,percent Bodipy-positive cells,[3],10.7 ± 0.2%
same,percent Bodipy-positive cells,[4],14 ± 2.3%
same,percent Bodipy-positive cells,[1],6.38 ± 1%
c1ccc([C@H]2CN3CCSC3=N2)cc1 [Levamisole hydrochloride],percent Bodipy-positive cells,,33.3 ± 5.4%
same,percent Bodipy-positive cells,library stock concentration: 8.3 mM,15 ± 1.9%
same,percent Bodipy-positive cells,[1],43.6 ± 4.2%
CCCCC/C=C\C=C\[C@@H](O)CCCCCCCC(=O)O,percent Bodipy-positive cells,library stock concentration: 100 uM,10.9 ± 12%
O=C1C[C@@H](c2ccc(O)cc2)Oc2cc(O)cc(O)c21 [Naringenin],percent Bodipy-positive cells,[5],7.96 ± 1%
same,percent Bodipy-positive cells,[1],15.2 ± 1.5%
O=C1C[C@@H](c2ccc(O)cc2)Oc2cc(O)cc(O)c21 [Naringenine],percent Bodipy-positive cells,,54.6 ± 32%
CCC(=O)O[C@]1(C(=O)CCl)[C@@H](C)C[C@H]2[C@@H]3CCC4=CC(=O)C=C[C@]4(C)[C@@]3(F)[C@@H](O)C[C@@]21C [Clobetasol propionate],percent Bodipy-positive cells,,13.9 ± 1.9%
same,percent Bodipy-positive cells,[5],10.1 ± 6.3%
same,percent Bodipy-positive cells,[1],17.6% and 25.4%
"Cc1ccc(NC(=O)c2ccc(CN3CCN(C)CC3)cc2)cc1Nc1nc(-c2cccnc2)cs1 [Masitinib (AB1010, Masivet) (2 mM)]",percent Bodipy-positive cells,[4],92.5 ± 5.8%
O=S(=O)(O)c1cc(O)ccc1O [Ethamsylate],percent Bodipy-positive cells,,8.17 ± 4.3%
same,percent Bodipy-positive cells,[5],14.2 ± 7.4%
same,percent Bodipy-positive cells,[1],34.3 ± 10%
Cc1c(O)c(=O)ccn1C,percent Bodipy-positive cells,[1],13.6% and 27.7%
CC(C)C[C@H](NP(=O)(O)O[C@H]1O[C@H](C)[C@@H](O)[C@H](O)[C@@H]1O)C(=O)N[C@@H](Cc1c[nH]c2ccccc12)C(=O)O [Phosphoramidon disodium],percent Bodipy-positive cells,[1],16.2 ± 1.4%

# 2 entries picked at random from those above:
compound,measurement,setting,value
Cc1c[nH]c(-c2cnc(NCCNc3ccc(C#N)cn3)nc2-c2ccc(Cl)cc2Cl)n1.Cl,percent Bodipy-positive cells,[1],77 ± 2.2%
COc1ccc(C2CNC(=O)C2)cc1OC1CCCC1 (centres undefined) [Rolipram],percent Bodipy-positive cells,[1],9.8% and 14.2% and 7.41%
